Changes are numbered by the printed parent chain. Results are given in words; binding and its absence hold for the method and conditions named. Some binding calls cover weakened binding; strength is not graded here. One block for each binder: values may come before it.
Biological target: human CD71 (transferrin receptor 1) extracellular domain, recombinant, biotinylated (human) (UniProt P02786)
Assay: hit of apical domain panning; heading of the sequence table

Chains of the proteins cited; added tags and fusions are not shown. Lines headed by an entry give the natural chain unless they say otherwise; changes in a name come on top. A line that says so, or that is headed by a name, gives the form on record, which may keep a tag or linker.
human CD71 (transferrin receptor 1) extracellular domain, recombinant, biotinylated (P02786, form named): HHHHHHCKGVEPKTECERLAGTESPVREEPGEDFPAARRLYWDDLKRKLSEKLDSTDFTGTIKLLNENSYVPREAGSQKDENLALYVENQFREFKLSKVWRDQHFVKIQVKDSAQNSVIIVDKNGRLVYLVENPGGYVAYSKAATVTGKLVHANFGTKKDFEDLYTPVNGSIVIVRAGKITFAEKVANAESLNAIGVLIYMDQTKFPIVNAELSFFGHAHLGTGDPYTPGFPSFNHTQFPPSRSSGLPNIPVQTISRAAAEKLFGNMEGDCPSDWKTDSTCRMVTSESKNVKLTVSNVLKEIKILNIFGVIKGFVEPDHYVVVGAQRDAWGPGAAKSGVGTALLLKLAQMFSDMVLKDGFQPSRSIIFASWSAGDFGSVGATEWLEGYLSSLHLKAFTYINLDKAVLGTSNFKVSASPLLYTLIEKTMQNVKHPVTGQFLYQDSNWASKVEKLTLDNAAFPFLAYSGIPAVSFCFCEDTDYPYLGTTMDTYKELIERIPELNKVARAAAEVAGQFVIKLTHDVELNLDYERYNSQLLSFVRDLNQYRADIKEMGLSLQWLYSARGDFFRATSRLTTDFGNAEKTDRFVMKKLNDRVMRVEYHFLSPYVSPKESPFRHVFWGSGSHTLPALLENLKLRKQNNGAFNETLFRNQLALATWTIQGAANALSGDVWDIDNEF

binding: binds
B1: FN3 domain of SEQ ID NO: 21 (designed binder)
chain: MLPAPKNLVVSRVTEDSARLSWTAPDAAFDSFSIRYNEFIVAGEAIVLTVPGSERSYDLTGLKPGTEYDVPIAGVKGGGASWPLSAIVTT

binding: binds
B2: FN3 domain of SEQ ID NO: 37 (designed binder)
chain: MLPAPKNLVVSRVTEDSARLSWTTPDAAFDSFPIYYWEVTITGEAIYLSVPGSERSYDLTGLKPGTEYPVDIPGVKGGAASPPLSAIFTT

binding: binds
B3: FN3 domain of SEQ ID NO: 35 (designed binder)
chain: MLPAPKNLVVSRVTEDSARLSWTAPDAAFDSFPISYIESIADGEAIVLTVPGSERSYDLTGLKPGTEYWVAIVGVKGGPFSWSLSAIVTT

binding: binds
B4: FN3 domain of SEQ ID NO: 1 (designed binder)
chain: MLPAPKNLVVSRVTEDSARLSWTAPDAAFDSFPITYIEAVVLGEAIVLTVPGSERSYDLTGLKPGTEYPVGISGVKGGHNSMPLSAIFTT

binding: binds
B5: FN3 domain of SEQ ID NO: 19 (designed binder)
chain: B4 chain with P33A, I37T, V40A, V41L, L42C, G71P, S73N, H79G, N80T, M82G

binding: binds
B6: FN3 domain of SEQ ID NO: 29 (designed binder)
chain: B4 chain with P33W, T35E, I37W, V41G, L42F, P69F, S73Y, H79Y, N80L, M82A

binding: binds
B7: FN3 domain of SEQ ID NO: 38 (designed binder)
chain: MLPAPKNLVVSRVTEDSARLSWTAPDAAFDSFPILYLEHTVRSEAIVLTVPGSERSYDLTDLKPGTEYCVPIDGVKGGLRSRPLSAIFTT

binding: binds
B8: FN3 domain of SEQ ID NO: 2 (designed binder)
chain: MLPAPKNLVVSEVTEDSARLSWQGVARAFDSFMINYSELFWMGEAIVLTVPGSERSYDLTGLKPGTEYVVRIKGVKGGKGSWPLHAHFTT

binding: binds
B9: FN3 domain of SEQ ID NO: 20 (designed binder)
chain: MLPAPKNLVVARVTEDSARLSWTAPDAAIDSFPIDYSEYWWGGEAIVLTVPGSERSYDLTGLKPGTEYPVLITGVKGGYRSGPLSAIFTT

binding: binds
B10: FN3 domain of SEQ ID NO: 6 (designed binder)
chain: MLPAPKNLVVSRVTEDSARLSWTAPDAAFDSFPIIYMETFSRGEAIVLTVPGSERSYDLTGLKPGTEYRVPIGGVKGGSSSCPLSAIFTT

binding: binds
B11: FN3 domain of SEQ ID NO: 25 (designed binder)
chain: B10 chain with I35W, M37L, T39K, F40S, S41Y, R42Q, R69V, G73I, S79R, S80D

binding: binds
B12: FN3 domain of SEQ ID NO: 17 (designed binder)
chain: B10 chain with I35L, M37T, T39C, F40V, S41Y, R69H, G73T, S79G, S80G, C82W

binding: binds
B13: FN3 domain of SEQ ID NO: 27 (designed binder)
chain: MLPAPKNLVVSRVTEDSARLSWTAPDAAFDSFRISYAETVRQGEAIVLTVPGSERSYDLTVETGYRNWVMILGVKGGPGSLPLSAIFTT

binding: binds
B14: FN3 domain of SEQ ID NO: 40 (designed binder)
chain: MLPAPKNLVVSRVTEDSARLSWTAPDAAFDSFTIDYWENRCPGEAIVLTVPGSERSYDLTGLKPGTEYCVWISGVKGGYSSWPLSAIFTT

binding: binds
B15: FN3 domain of SEQ ID NO: 31 (designed binder)
chain: MLPAPKNLVVSRVTEDSARLSWTAPDAAFDSFTIEYSEHPIDGEAIPLFVPGSERSYDLTGLKPGTEYYVRIHGVKGGWFSHPLWAFFTT

binding: binds
B16: FN3 domain of SEQ ID NO: 24 (designed binder)
chain: MLPAPKNLVVSRVTEDSARLSWTAPDAAFDSFMIRYQEGTRWGEAIVLTVPGSERSYDLTGLKPGTEYIVMIAGVKGGQISLPLSAIFTT

binding: binds
B17: FN3 domain of SEQ ID NO: 43 (designed binder)
chain: B16 chain with R35V, Q37Y, G39Y, W42F, I69T, M71P, A73D, Q79G, I80R, L82S

binding: binds
B18: FN3 domain of SEQ ID NO: 12 (designed binder)
chain: MLPAPKNLVVSRVTEDSARLSWTAPDAAFDSFFIPYAEPSPTGEAIVLTVPGSERSYDLTGLKPGTEYSVLIHGVKGGHLSDPLSAISTT

binding: binds
B19: FN3 domain of SEQ ID NO: 44 (designed binder)
chain: B18 chain with S88V

binding: binds
B20: FN3 domain of SEQ ID NO: 46 (designed binder)
chain: B18 chain with F33I, P39V, S40R, T42D, H79K, D82L, S88F

binding: binds
B21: FN3 domain of SEQ ID NO: 42 (designed binder)
chain: B18 chain with F33L, P39T, T42S, H79D, L80Y, D82E, S88F

binding: binds
B22: FN3 domain of SEQ ID NO: 4 (designed binder)
chain: MLPAPKNLVVSEVTEDSARLSWQGVARAFDSFLITYRDQIFAGEVIVLTVPGSERSYDLTGLKPGTEYPVWIQGVKGGSPSAPLSAESTT

binding: binds
B23: FN3 domain of SEQ ID NO: 41 (designed binder)
chain: B22 chain with E12R, D38E, S79H, P80L, A82D, E87I, S88V

binding: binds
B24: FN3 domain of SEQ ID NO: 32 (designed binder)
chain: B22 chain with E12R, D38E, P69G, W71T, Q73A, S79W, P80R, A82K, S85N

binding: binds
B25: FN3 domain of SEQ ID NO: 5 (designed binder)
chain: B22 chain with D38E, P69W, W71Y, Q73W, S79K, A82F, S85R, E87G, S88F

binding: binds
B26: FN3 domain of SEQ ID NO: 45 (designed binder)
chain: B22 chain with D38E, S88F

binding: binds
B27: FN3 domain of SEQ ID NO: 15 (designed binder)
chain: B22 chain with E12R, D38E, Y68C, S88F

binding: binds
B28: FN3 domain of SEQ ID NO: 26 (designed binder)
chain: B22 chain with D38E, S88F

binding: binds
B29: FN3 domain of SEQ ID NO: 7 (designed binder)
chain: B22 chain with E12D, D38E, S88F

binding: binds
B30: FN3 domain of SEQ ID NO: 39 (designed binder)
chain: MLPAPKNLVVSRVTEDSARLSWTAPDAAFDSFPIPYTEPPDPGEAIVLTVPGSERSYDLTGLKPGTEYLVTILGVKGGSMSVPLSAIFTT

binding: binds
B31: FN3 domain of SEQ ID NO: 3 (designed binder)
chain: MLPAPKNLVVSRVTEDSARLSWTAPDAAFDSFNIEYAETRWYGEAIVLTVPGSERSYDLTGLKPGTEYVVPIDGVKGGIASKPLSAIFTT

binding: binds
B32: FN3 domain of SEQ ID NO: 33 (designed binder)
chain: B31 chain with N33G, E35A, A37V, T39S, R40Y, V69N, D73Y, I79D, A80G, K82G

binding: binds
B33: FN3 domain of SEQ ID NO: 10 (designed binder)
chain: B31 chain with N33K, E35A, A37I, R40A, W41T, Y42R, D73P, I79N, A80T, K82S

binding: binds
B34: FN3 domain of SEQ ID NO: 23 (designed binder)
chain: MLPAPKNLVVSRVTEDSARLSWTAPDAAFDSFAIWYHEWYGDGEAIVLTVPGSERSYDLTGPKPGTEYRVRISGVKGGFESGPLSAIFTT

binding: binds
B35: FN3 domain of SEQ ID NO: 13 (designed binder)
chain: MLPAPKNLVVSRVTEDSARLSWTAPDAAFDSFLIAYPEDGFRGEAIVLTVPGSERSYDLTGLKPGTEYPVPILGVKGGGGSGPLSAIFTT

binding: binds
B36: FN3 domain of SEQ ID NO: 34 (designed binder)
chain: B35 chain with L33Y, A35T, P37V, D39L, G40N, F41L, R42A, G79S, G80L, G82Q

binding: binds
B37: FN3 domain of SEQ ID NO: 18 (designed binder)
chain: B35 chain with L33N, A35M, P37H, D39I, G40I, F41Y, R42V, L73E, G80T

binding: binds
B38: FN3 domain of SEQ ID NO: 22 (designed binder)
chain: MLPAPKNLVVSRVTEDSARLSWTAPDAAFDSFWYLELQFAGEAIVLTVPGSERSYDLTGLKPGTEYNVPITGVKGGIISFPLSAIFTT

binding: binds
B39: FN3 domain of SEQ ID NO: 30 (designed binder)
chain: MLPAPKNLVVSRVTEDSARLSWTAPDAAFDSFIIHYVEQQLIGEAIVLTVPGSERSYDLTGLKPGTEYPVPITGVKGGACSWPLSAIFTT

binding: binds
B40: FN3 domain of SEQ ID NO: 48 (designed binder)
chain: MLPAPKNLVVSRVTEDSARLSWTAPDAAFDSFLIYYEEGYLEYYYSGEAIVLTVPGSERSYDLTGLKPGTEYYVGIVGVKGGGLSGPLSAISTT

binding: binds
B41: FN3 domain of SEQ ID NO: 47 (designed binder)
chain: MLPAPKNLVVSRVTEDSARLSWTAPDAAFDSFGIVYLEMMVTGEAIVLTVPGSERSYDLTGLKPGTEYDVPILGVKGGTRSVPLSAIFTT
